The results in this text go back to PMC5859096.

The exact form of at least one protein or probe is not confirmed. For part of these data: A negative result means that nothing was seen under these conditions.

Data set [1] addresses T1, Tag-free BldC (Streptomyces coelicolor) (UniProt A0A0M7QSG5). Put plainly: crystal structure (3.09 A). To be noted: 0.1 M CaCl2 in crystallization; recombinant protein.
The target in data set [2] is T2, His6-BldC (Streptomyces coelicolor) (UniProt A0A0M7QSG5). Put plainly: EMSA. The settings on record: EMSA: 0.004-1.2 uM BldC, 20 min RT, 5% gel; recombinant protein; protein details: His6 (pET15b). Background: A gel shift assay detects complexes by their altered migration in electrophoresis.
For data set [3], the target named is His6-BldC(R30A) (Streptomyces coelicolor) (UniProt A0A0M7QSG5). Put plainly: fluorescence polarization. To be noted: FP: 25 mM Tris pH 7.5, 150 mM NaCl, 1 nM F-DNA, 25 C; recombinant protein; protein details: His6; label: 5' fluorescein on top strand; letters put together from the description. In general terms: Polarisation of emitted light reports the rotation of a fluorescent probe.

In data set [4] the target is His6-BldC(G44E) (Streptomyces coelicolor) (UniProt A0A0M7QSG5). Put plainly: fluorescence polarization. The settings on record: FP: 25 mM Tris pH 7.5, 150 mM NaCl, 1 nM F-DNA, 25 C; recombinant protein; protein details: His6; label: 5' fluorescein on top strand; letters put together from the description.
For data set [5], the target named is His6-BldC(H46A) (Streptomyces coelicolor) (UniProt A0A0M7QSG5). Put plainly: fluorescence polarization. The settings on record: FP: 25 mM Tris pH 7.5, 150 mM NaCl, 1 nM F-DNA, 25 C; recombinant protein; protein details: His6; label: 5' fluorescein on top strand; letters put together from the description.
In data set [6] the target is SeMet BldC(L43M-L58M), tag-free (Streptomyces coelicolor) (UniProt A0A0M7QSG5). Put plainly: crystal structure (3.28 A). The settings on record: recombinant protein; letters put together from the description.
In data set [7] the target is T1, Tag-free BldC (Streptomyces coelicolor). Put plainly: crystallization. The settings on record: same crystals as SeMet mutant; recombinant protein; letters put together from the description.
Data set [8] has as its target T2, His6-BldC (Streptomyces coelicolor). Put plainly: fluorescence polarization. To be noted: FP: 25 mM Tris pH 7.5, 150 mM NaCl, 1 nM F-DNA, 25 C; recombinant protein; protein details: His6 (pET15b); label: 5' fluorescein on top strand; letters put together from the description.

On to “GCAATTCGGTCGAATTTC (double strand) [smeA-ssfA 18mer]”, for which the binding result in data set [1] was “binds”.

For the sequence “TGTCCGAATTGTCCGAATTG (double strand) [whiI 20R sym]”, the binding result in data set [2] is “binds”.

As to “TGTGTCCGAATTGCTCGGATTG (double strand) [whiI 22L]”, in data set [2], the binding result is listed as “binds”.

For the sequence “TTCAATTCGGACAATTCGGACA / AATGTCCGAATTGTCCGAATTG [whiI opt 22mer (FP)]”, the binding result in data set [3], in data set [4] and in data set [5] was “no binding” each time.

Regarding “TTCAATTCGGACAATTCGGACA / AATGTCCGAATTGTCCGAATTG [whiI opt 22mer (crystal)]”, the binding result in data set [6] and in data set [7] was “binds” each time.

“TTCGGCCCGGACGGCCCGGACA / AATGTCCGGGCCGTCCGGGCCG [whiI opt AATT to GGCC]”: in data set [8], the binding result is recorded as “no binding”.
